The nature of series [1]: Hole mobility rate of the hole transporting material/layer. The settings on record: hole transporting layer material. It is filed as physicochemical.
Series [2] can be described thus: Mask cleaning effect. The settings on record: time for complete cleaning of red light MASK of hole transporting layer, ultrasonic 40 kHz, 25° C. As for the experimental part: (3) Mask Cleaning Effect:
the time required for all the materials on the MASK of the red light of the hole transporting layer 203 to be completely cleaned at a fixed ultrasonic frequency of 40 kHz and at a temperature of 25° C.

Series [3] can be described thus: Crosstalk test of OLED display panel (LGreen/LBlue). The settings on record: B screen in a dark room, intensity ratio of green light of adjacent pixels at blue light intensity 0.1 Cd/m^2. The protocol: An OLED display panel having the structure shown in FIG. 2 was prepared by the following process.
Performance tests of the OLED display panels in the Examples and Comparison Examples were carried out.
(2) Crosstalk test method: the program being transferred to the B screen in a dark room, testing the intensity ratio of the green light of adjacent pixels when the blue light intensity was 0.1 Cd/m^2, LGreen/LBlue;

Here are results for three compounds from US10446758B2, “Hole transporting material, OLED display panel and electronic device comprising the same” (SHANGHAI TIANMA AM-OLED CO., LTD., priority 2016, dated 2019).

For the compound `c1ccc(-c2ccc(N(c3ccc(-c4ccccc4)cc3)c3ccc(-c4ccc(N(c5ccc(-c6ccccc6)cc5)c5ccc(-c6ccccc6)cc5)cc4)cc3)cc2)cc1` [Comparison Example 1], the hole mobility rate in series [1] was 3×10^−4 cm^2/V·S. The same compound had a Mask cleaning time in series [2] of 80 s. In addition, in series [3], the LGreen/LBlue is 1.5%.

In series [2], `c1ccc(-c2ccc(N(c3ccc(-c4ccccc4)cc3)c3ccc(N(c4ccc(-c5ccccc5)cc4)c4ccc(-c5ccccc5)cc4)cc3)cc2)cc1` [Comparison Example 2] came in with a Mask cleaning time of 65 s. Also, the LGreen/LBlue in series [3] is reported as 1.7%.

As to `Cc1cccc(-c2ccc(N(c3ccc(-c4cccc(C)c4)cc3)c3ccc(-c4cc(C)c(N(c5ccc(-c6cccc(C)c6)cc5)c5ccc(-c6cccc(C)c6)cc5)c(C)c4)cc3)cc2)c1` [Example 1], the hole mobility rate in series [1] is on record as 2×10^−4 cm^2/V·S. Moreover, the Mask cleaning time in series [2] came to 20 s. In series [3], the LGreen/LBlue is on record as 1.9%.
